The source of these data is patent publication US7608243 (dated 2009).

A short description of data set [1]: general procedure: Fmoc solid-phase peptide synthesis; Rink Amide AM resin; HBTU (HATU for PEG unit). The note with it: whole synthesis, scale 0.25 mmol.
A short description of data set [2]: general procedure: Fmoc solid-phase peptide synthesis; O-Bis-(aminoethyl)ethylene glycol trityl resin; HBTU (HATU for PEG unit). The note with it: whole synthesis, scale 0.25 mmol.

In data set [1], “ClCH2CO-Lys-Cys(tBu)-Arg-Gly-Asp-Cys(tBu)-Phe-Cys-PEG-NH2” displayed a crude mass of 322 mg.

“ClCH2CONH-Asp-Cys (tBu)-Arg-Gly-Asp-Cys (tBu)-Phe-Cys-Gly-NH— (CH2CH2O)2CH2CH2NH2” had a crude mass in data set [2] of 364 mg.
